Measurements published in publication PMC5573083, “Structural and Functional Analysis of the Escherichia coli Acid-Sensing Histidine Kinase EvgS” (Journal of Bacteriology, 2017).
Numbering of substitutions follows the chain as printed. Numbers in names are those of the source. These are yes or no findings as the source states them, for the method shown. For part of these data: Tags and fused reporters may be left off the sequences shown.

What was measured:
[1] = molecular target: EvgS-Cyt (entire cytoplasmic region of the Escherichia coli histidine kinase EvgS, residues 553 to 1193) (Escherichia coli) (UniProt P30855); experiment: AUC; purified protein dialysed against 50 mM Tris-HCl pH 5.6; OD280 of 1 (printed as 0.1 μM protein); 40,000 rpm, 20°C; 200 scans; analysed with Sedfit; monomer to dimer; both purified
[2] = molecular target: EvgS-Cyt S600I (cytoplasmic domain of EvgS containing the activating S600I mutation in the PAS domain) (Escherichia coli) (UniProt P30855); experiment: AUC; purified protein dialysed against 50 mM Tris-HCl pH 7; OD280 of 1 (printed as 0.1 μM protein); 40,000 rpm, 20°C; 200 scans; analysed with Sedfit; monomer to dimer; both purified
[3] = molecular target: EvgS-Cyt S600I (cytoplasmic domain of EvgS containing the activating S600I mutation in the PAS domain) (Escherichia coli) (UniProt P30855); experiment: AUC; purified protein dialysed against 50 mM Tris-HCl pH 5.6; OD280 of 1 (printed as 0.1 μM protein); 40,000 rpm, 20°C; 200 scans; analysed with Sedfit; monomer to dimer; both purified

B1: EvgS-Cyt (entire cytoplasmic region of the Escherichia coli histidine kinase EvgS, residues 553 to 1193) (domain or fragment, UniProt P30855 553-1193, looked up)
chain: WGFYLLRSVRRRKVIQGDLENQISFRKALSDSLPNPTYVVNWQGNVISHNSAFEHYFTADYYKNAMLPLENSDSPFKDVFSNAHEVTAETKENRTIYTQVFEIDNGIEKRCINHWHTLCNLPASDNAVYICGWQDITETRDLINALEVEKNKAIKATVAKSQFLATMSHEIRTPISSIMGFLELLSGSGLSKEQRVEAISLAYATGQSLLGLIGEILDVDKIESGNYQLQPQWVDIPTLVQNTCHSFGAIAASKSIALSCSSTFPEHYLVKIDPQAFKQVLSNLLSNALKFTTEGAVKITTSLGHIDDNHAVIKMTIMDSGSGLSQEEQQQLFKRYSQTSAGRQQTGSGLGLMICKELIKNMQGDLSLESHPGIGTTFTITIPVEISQQVATVEAKAEQPITLPEKLSILIADDHPTNRLLLKRQLNLLGYDVDEATDGVQALHKVSMQHYDLLITDVNMPNMDGFELTRKLREQNSSLPIWGLTANAQANEREKGLSCGMNLCLFKPLTLDVLKTHLSQLHQVAHIAPQYRHLDIEALKNNTANDLQLMQEILMTFQHETHKDLPAAFQALEAGDNRTFHQCIHRIHGAANILNLQKLINISHQLEITPVSDDSKPEILQLLNSVKEHIAELDQEIAVFC
notes: EvgS sensor histidine kinase, Escherichia coli, cytoplasmic domains comprising amino acid residues 553 to 1193; expected monomer mass printed as 72.3 kDa; Amplified from pBADEvgS and cloned NdeI-HindIII into a modified pET41c in which the GST tag is replaced by a C-terminal His8 tag; By the forward primer a start methionine precedes R553 (ATGCGCTCAGTTCGTCGTCGT); No cleavage of the tag is …
With B1 the binding [1] was “no binding (condition: at pH 5.6)”.

B2: EvgS-Cyt S600I (cytoplasmic domain of EvgS containing the activating S600I mutation in the PAS domain) (domain or fragment, UniProt P30855 553-1193)
chain: B1 chain with S48I
With B2 the binding [2] was “no binding (tested: 0.1 μM)” and the binding [3] was “no binding (tested: 0.1 μM)”.
